PubChem BioAssay AID743456 – Peter MacCallum Cancer Centre | 2014
In all, the deposit lists 878 reagents; below is a random part of them. 27 of them (3.1%) count as active. 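27 mimics are marked active, unlike an earlier stated count of 24; the viability threshold is described inconsistently.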 Unmarked entries are inactive. Further read-outs or replicates are left out here. No sequences are given here. The record does not give: the amount of reagent.

Purpose: 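Mimic library tested for viability and apoptosis changes under vorinostat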 (primary screen)
Cell system: human HCT116-VR colon cancer cells, a vorinostat-resistant HCT116 line
Reagent: miRNA mimic
Timing: about 3 days from transfection to readout; drug present for the last 24 h
Treatment: vorinostat at 2.5 µM final for 24 h
Read-out: 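Cell viability from CellTiter-Fluor signal and caspase activity from luminescence after 24 h vorinostat at 2.5 µM, given as robust z-scores and as ratios to mock-transfected wells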
Direction: viability robust z-score: higher = more viable cells; caspase robust z-score: higher = more caspase activity, more apoptosis
Call rule: 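a mimic counts as active if it lands in a lowered-viability class or a caspase-activation class; wells with too few cells without drug are left out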

With hsa-miR-873, the values are viability robust z-score 1; caspase robust z-score -0.63; viability hit class no change; caspase hit class no change. hsa-miR-27b showed viability robust z-score -2.04; caspase robust z-score -0.1; viability hit class no change; caspase hit class no change. hsa-miR-491-5p gave viability robust z-score -3.71 (active); caspase robust z-score 1.12; viability hit class reduced viability; caspase hit class no change. With hsa-miR-518c, the values are viability robust z-score 0.24; caspase robust z-score -0.39; viability hit class no change; caspase hit class no change. hsa-miR-450b-5p scored viability robust z-score -0.01; caspase robust z-score -0.02; viability hit class no change; caspase hit class no change. hsa-miR-543 showed viability robust z-score 0.74; caspase robust z-score -0.38; viability hit class no change; caspase hit class no change.

For hsa-miR-552, the values are viability robust z-score -2.19; caspase robust z-score -0.14; viability hit class no change; caspase hit class no change. For hsa-let-7c*, the values are viability robust z-score 0.58; caspase robust z-score -0.71; viability hit class no change; caspase hit class no change. For hsa-miR-223* the deposit lists viability robust z-score 0.62; caspase robust z-score -0.62; viability hit class no change; caspase hit class no change. For hsa-miR-1910 the deposit lists viability robust z-score 1.13; caspase robust z-score 0.37; viability hit class no change; caspase hit class no change. hsa-miR-376c showed viability robust z-score 0.49; caspase robust z-score -0.62; viability hit class no change; caspase hit class no change. For hsa-miR-573 the deposit lists viability robust z-score -0.18; caspase robust z-score 0.69; viability hit class no change; caspase hit class no change.

For hsa-miR-519e* the deposit lists viability robust z-score -0.49; caspase robust z-score 2.19; viability hit class no change; caspase hit class no change. hsa-miR-199a-5p scored viability robust z-score 0.92; caspase robust z-score 0.25; viability hit class no change; caspase hit class no change. hsa-miR-525-3p showed viability robust z-score 0.07; caspase robust z-score 0.5; viability hit class no change; caspase hit class no change. hsa-miR-587 gave viability robust z-score 1.63; caspase robust z-score -0.56; viability hit class no change; caspase hit class no change. hsa-miR-665 gave viability robust z-score -0.54; caspase robust z-score 1.09; viability hit class no change; caspase hit class no change. With hsa-miR-485-5p, the entry reads viability robust z-score -0.6; caspase robust z-score 3.63; viability hit class no change; caspase hit class no change.

A run of entries from the list above:
hsa-miR-873 → viability robust z-score: 1; caspase robust z-score: -0.63; viability hit class: no change; caspase hit class: no change
hsa-miR-27b → viability robust z-score: -2.04; caspase robust z-score: -0.1; viability hit class: no change; caspase hit class: no change
hsa-miR-491-5p → viability robust z-score: -3.71 (active); caspase robust z-score: 1.12; viability hit class: reduced viability; caspase hit class: no change
